In the experiment the target is β-site amyloid precursor protein-cleaving enzyme 1 (BACE1) (human (endogenous in postmortem brain tissue)) (UniProt P56817). The experiment is described as follows: co-IP; 200 ug total protein of human brain tissue lysate (1% NP40, 100 mM NaCl, 10 mM Tris pH 7.4) incubated overnight at 4°C with anti-BACE1 antibody, Protein G Sepharose beads, three washes; blot with anti-GFAP; IgG as negative control; control, FAD, SAD and CADASIL cases.

Amino acid sequences for entries named in this document (tags omitted). Residues count along the entry.
UniProt P56817, residues 46-501: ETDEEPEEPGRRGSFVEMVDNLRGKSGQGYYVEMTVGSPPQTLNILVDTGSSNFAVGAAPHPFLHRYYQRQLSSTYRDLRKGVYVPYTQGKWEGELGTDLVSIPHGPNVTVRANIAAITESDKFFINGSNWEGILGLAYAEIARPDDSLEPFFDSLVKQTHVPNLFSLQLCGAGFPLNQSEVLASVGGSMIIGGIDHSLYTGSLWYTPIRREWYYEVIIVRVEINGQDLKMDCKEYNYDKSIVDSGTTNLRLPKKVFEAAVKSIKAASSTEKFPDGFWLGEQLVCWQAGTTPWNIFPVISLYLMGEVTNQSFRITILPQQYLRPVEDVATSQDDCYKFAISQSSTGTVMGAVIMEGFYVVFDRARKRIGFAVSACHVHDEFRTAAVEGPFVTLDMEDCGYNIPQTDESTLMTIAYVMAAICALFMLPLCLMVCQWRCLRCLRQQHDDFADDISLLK
UniProt P14136: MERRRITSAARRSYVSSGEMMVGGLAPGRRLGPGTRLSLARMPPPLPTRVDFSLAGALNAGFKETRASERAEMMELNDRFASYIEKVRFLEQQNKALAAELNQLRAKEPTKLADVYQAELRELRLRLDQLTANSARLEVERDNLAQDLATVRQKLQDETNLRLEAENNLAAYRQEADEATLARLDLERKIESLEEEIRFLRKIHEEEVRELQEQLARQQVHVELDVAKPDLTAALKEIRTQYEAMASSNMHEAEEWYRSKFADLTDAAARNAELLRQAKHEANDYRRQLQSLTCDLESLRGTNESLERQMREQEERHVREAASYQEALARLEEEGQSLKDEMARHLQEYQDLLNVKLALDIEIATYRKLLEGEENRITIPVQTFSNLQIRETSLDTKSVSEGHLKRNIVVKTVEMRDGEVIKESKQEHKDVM

No constants are given. Whether binding was seen depends on the method and setting. In cells and extracts the contact can be indirect. Some binding calls cover weakened binding; strength is not graded here.

As to “Glial Fibrillary Acid Protein (GFAP) (from UniProt P14136 1-432)”, the binding entry is given as “binds”.
